From PubChem BioAssay AID256 (DTP/NCI, 2004)
The list is a part of this screen's results and no random one: it is rich in T/C values a quarter to a half above the control, in often repeated tests (any T/C) and in doses without a T/C. Other doses and runs of a compound stand elsewhere. T/C gives the treated animals as a percentage of the vehicle group. Some doses have a count of surviving animals in place of a T/C: the source files T/C as zero there, which appears to mark a toxic dose or a test without result, not a measured value. Some survivor counts are full or nearly so, which does not show that the dose was tolerated: survival well below the control is almost never listed, so the zero probably covers shortened survival too. Counts of survivors are from the toxicity check (mostly the fifth day) where no day follows; animals may have died later. Schedules are NCI's codes, taken here to give the interval after Q, in days (D) or hours (H), and the number of doses after X. Some entries hold several experiments; their values stand side by side, smallest first. Where survival is the endpoint, the PubChem record calls one and a half times the control and up active, and a quarter to a half above the control has no call in these data; cut-offs in other NCI protocols can differ. Some T/C values carry the count of animals alive at the toxicity check (mostly the fifth day); where none is given, no animal had died by that day.

Test system: CD2F1 mice, L1210 leukemia ip, survival T/C
Test: NCI In Vivo Anticancer Drug Screen. Data for tumor model L1210 Leukemia (intraperitoneal) in CD2F1 (CDF1) mice
Details: higher T/C = longer survival
Summary of the method: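 Mice carrying a transplanted tumor received test compound or vehicle alone. The value is the measurement in the treated group divided by that in the vehicle-treated control group.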

[1] = T/C endpoint: mean survival time, dose: 400.0 mg/kg/injection, schedule: Q01DX001 (ip), vehicle: saline
[2] = T/C endpoint: mean survival time, dose: 200.0 mg/kg/injection, schedule: Q01DX009 (ip), vehicle: saline
[3] = T/C endpoint: mean survival time, dose: 400.0 mg/kg/injection, schedule: Q01DX009 (ip), vehicle: saline
[4] = T/C endpoint: median survival time, dose: 200.0 mg/kg/injection, schedule: Q01DX009 (ip), vehicle: saline + Tween-80 + alcohol

C=C1C(=O)OC2CCN3CC=C(COC(=O)C(C)(O)C4(CO4)C1C)C23 (stereo not given)
survivor count (T/C endpoint: mean survival time, dose: 150.0 mg/kg/injection, schedule: Q01DX001 (ip), vehicle: saline): 1 of 6 | survivor count (T/C endpoint: mean survival time, dose: 300.0 mg/kg/injection, schedule: Q01DX001 (ip), vehicle: saline): 0 of 6

CN(C)CCSc1nnc(N)s1
survivor count (T/C endpoint: mean survival time, dose: 100.0 mg/kg/injection, schedule: Q01DX001 (ip), vehicle: saline): 3 of 3 | survivor count [1]: 0 of 3

CCOC(=O)NC(=S)n1ncnc1N
survivor count (T/C endpoint: mean survival time, dose: 50.0 mg/kg/injection, schedule: Q04DX003 (ip), vehicle: saline): 6 of 6

CC1NC(=O)OC1(C)c1ccccc1 (stereo not given)
survivor count (T/C endpoint: mean survival time, dose: 400.0 mg/kg/injection, schedule: Q04DX002 (ip), vehicle: saline with Tween-80): 1 of 3

CSC#N
survivor count (T/C endpoint: mean survival time, dose: 20.0 mg/kg/injection, schedule: Q01DX009 (ip), vehicle: Klucel (hydroxypropylcellulose) (HPC)): 1 of 3

CCCCC(CSC#N)SC#N (stereo not given)
survivor count (T/C endpoint: mean survival time, dose: 25.0 mg/kg/injection, schedule: Q04DX002 (ip), vehicle: saline with Tween-80): 0 of 3 and 1 of 3 | survivor count (T/C endpoint: mean survival time, dose: 50.0 mg/kg/injection, schedule: Q04DX002 (ip), vehicle: saline with Tween-80): 0 of 3 | survivor count (T/C endpoint: mean survival time, dose: 100.0 mg/kg/injection, schedule: Q04DX002 (ip), vehicle: saline with Tween-80): 0 of 3

CC(C)=CC1CC(C)C2(CCC3(C)CC4C(C(=O)CC4(C)O)/C(C=O)=C\CC32)O1 (stereo not given)
survivor count (T/C endpoint: mean survival time, dose: 18.75 mg/kg/injection, schedule: Q01DX009 (ip), vehicle: saline with Tween-80): 3 of 6 | survivor count (T/C endpoint: mean survival time, dose: 37.5 mg/kg/injection, schedule: Q01DX009 (ip), vehicle: saline with Tween-80): 0 of 6 | survivor count (T/C endpoint: mean survival time, dose: 75.0 mg/kg/injection, schedule: Q01DX009 (ip), vehicle: saline with Tween-80): 0 of 6

C/C=C/CC1(Cc2ccccc2)C(=O)NC(=S)NC1=O
survivor count (T/C endpoint: mean survival time, dose: 38.0 mg/kg/injection, schedule: Q01DX001 (ip), vehicle: other): 3 of 6

CCOC(OCC)c1cc[n+](CCc2ccc(OC)c(OC)c2)cc1
survivor count (T/C endpoint: mean survival time, dose: 200.0 mg/kg/injection, schedule: Q04DX003 (ip), vehicle: saline): 3 of 6 | survivor count (T/C endpoint: mean survival time, dose: 400.0 mg/kg/injection, schedule: Q04DX003 (ip), vehicle: saline): 0 of 6

CCCc1nc2[nH]c(N)nc(=S)c2[nH]1
survivor count (T/C endpoint: mean survival time, dose: 50.0 mg/kg/injection, schedule: Q01DX005 (ip), vehicle: other): 3 of 6 | survivor count (T/C endpoint: mean survival time, dose: 100.0 mg/kg/injection, schedule: Q01DX005 (ip), vehicle: other): 0 of 6 | survivor count (T/C endpoint: mean survival time, dose: 200.0 mg/kg/injection, schedule: Q01DX005 (ip), vehicle: other): 0 of 6

Cc1cccc(C2=NCCN2)c1C
survivor count (T/C endpoint: mean survival time, dose: 100.0 mg/kg/injection, schedule: Q01DX001 (ip), vehicle: saline with Tween-80): 0 of 6 | survivor count (T/C endpoint: mean survival time, dose: 200.0 mg/kg/injection, schedule: Q01DX001 (ip), vehicle: saline with Tween-80): 0 of 6 | survivor count (T/C endpoint: mean survival time, dose: 400.0 mg/kg/injection, schedule: Q01DX001 (ip), vehicle: saline with Tween-80): 0 of 6

c1c2c(cc3c1OCO3)CNCC2
survivor count (T/C endpoint: mean survival time, dose: 200.0 mg/kg/injection, schedule: Q01DX001 (ip), vehicle: saline): 2 of 6 | survivor count [1]: 0 of 6

Cn1c2ccccc2c2ccc3c(c21)C(=O)C=CC3=O
survivor count (T/C endpoint: median survival time, dose: 100.0 mg/kg/injection, schedule: Q01DX009 (ip), vehicle: Klucel (hydroxypropylcellulose) (HPC)): 2 of 6 | survivor count (T/C endpoint: median survival time, dose: 200.0 mg/kg/injection, schedule: Q01DX009 (ip), vehicle: Klucel (hydroxypropylcellulose) (HPC)): 0 of 6

CC(=O)OCC1OC(n2ccc3c(N)ncnc32)C(O)C1OC(C)=O (stereo not given)
survivor count (T/C endpoint: mean survival time, dose: 40.0 mg/kg/injection, schedule: Q01DX001 (ip), vehicle: saline): 0 of 6 | survivor count (T/C endpoint: mean survival time, dose: 80.0 mg/kg/injection, schedule: Q01DX001 (ip), vehicle: saline): 0 of 6

CN(C)NCc1ccccc1
survivor count [2]: 3 of 3 | survivor count [3]: 0 of 3

CC1(C)C(CC(=O)O)CC1C(=O)O (stereo not given)
survivor count (T/C endpoint: mean survival time, dose: 400.0 mg/kg/injection, schedule: Q01DX009 (ip), vehicle: saline with Tween-80): 3 of 6

COc1cc2c(cc1OC)C1Cc3ccc4cc(OC)c(OC)cc4c3CN1CC2 (stereo not given)
survivor count [2]: 3 of 6 | survivor count [3]: 1 of 6

CCCCCCCCCCCCCCNC(=O)C[N+](C)(C)Cc1ccccc1
survivor count (T/C endpoint: mean survival time, dose: 2.5 mg/kg/injection, schedule: Q01DX009 (ip), vehicle: saline with Tween-80): 0 of 6 | survivor count (T/C endpoint: mean survival time, dose: 5.0 mg/kg/injection, schedule: Q01DX009 (ip), vehicle: saline with Tween-80): 0 of 6 | survivor count (T/C endpoint: mean survival time, dose: 10.0 mg/kg/injection, schedule: Q01DX009 (ip), vehicle: saline with Tween-80): 0 of 6 | survivor count (T/C endpoint: mean survival time, dose: 20.0 mg/kg/injection, schedule: Q04DX003 (ip), vehicle: saline): 6 of 6 | survivor count (T/C endpoint: mean survival time, dose: 100.0 mg/kg/injection, schedule: Q04DX003 (ip), vehicle: saline with Tween-80): 0 of 6 | survivor count (T/C endpoint: mean survival time, dose: 200.0 mg/kg/injection, schedule: Q04DX003 (ip), vehicle: saline with Tween-80): 0 of 6 | survivor count (T/C endpoint: mean survival time, dose: 400.0 mg/kg/injection, schedule: Q04DX003 (ip), vehicle: saline with Tween-80): 0 of 6

COC(=O)C1=CCC[N+](C)(C)C1
survivor count (T/C endpoint: mean survival time, dose: 12.5 mg/kg/injection, schedule: Q04DX002 (ip), vehicle: saline): 1 of 3 | survivor count (T/C endpoint: mean survival time, dose: 25.0 mg/kg/injection, schedule: Q04DX002 (ip), vehicle: saline): 0 of 3 | survivor count (T/C endpoint: mean survival time, dose: 100.0 mg/kg/injection, schedule: Q04DX002 (ip), vehicle: saline): 0 of 3 | survivor count (T/C endpoint: mean survival time, dose: 200.0 mg/kg/injection, schedule: Q04DX002 (ip), vehicle: saline): 0 of 3 | survivor count (T/C endpoint: mean survival time, dose: 400.0 mg/kg/injection, schedule: Q04DX002 (ip), vehicle: saline): 0 of 3

CC(=O)Oc1ccccc1O
T/C (T/C endpoint: median survival time, dose: 50.0 mg/kg/injection, schedule: Q01DX009 (ip), vehicle: saline + Tween-80 + alcohol): 97, 103, 111, 112 % of control | T/C (T/C endpoint: median survival time, dose: 100.0 mg/kg/injection, schedule: Q01DX009 (ip), vehicle: saline + Tween-80 + alcohol): 114, 128 [5 of 6 alive], 133, 148 % of control | T/C [4]: 97 [4 of 6 alive], 136, 165 % of control | survivor count [4]: 3 of 6 | survivor count (T/C endpoint: median survival time, dose: 400.0 mg/kg/injection, schedule: Q01DX009 (ip), vehicle: saline + Tween-80 + alcohol): 0 of 6
